Test results as given in patent publication US12121026B1, “N-[(1-phenyl-4H-1,2,4-triazol-3-yl) carbamothioyl]benzamide as an eco-friendly insecticidal agent against spodoptera littoralis” (KING FAISAL UNIVERSITY, priority 2023, dated 2024).

Tested on: second and fourth instars larvae of the laboratory strain of cotton leafworm, S. littoralis
Assay: Insecticidal bioassay screening (castor leaf dip)
Format: in vivo
Settings: after 72 hrs of treatment, slope of LDP line
Description: Five concentrations (200, 100, 50, 25, 12.5 ppm) were designed for this synthetic compound and the reference Diflubenzuron compound as the dynamic ingredients based on ppm via diluting the commercial formulation.
In this experiment, castor leaves are immersed in each of the previously prepared concentrations of the components for 10 seconds and then left to dry for 60 minutes. Larvae of the second and fourth instars of each checked strain are prepared with treated leaves in gauze-covered glass containers for 72 hrs. An untreated control is made in which leaves are dipped in triton x-100 and distilled water only. Then the preserved leaves were removed & fresh, untreated leaves were provided for 72 hours. Three replicates (10 larvae each) were checked for each concentration. Daily inspection was carried out for all treatments and mortality percentages were recorded 3 days (72 hours) after treatment. The average mortality percentage was corrected employing Abbott's formula. The corrected mortality rate for each of the previously synthesized compounds is statistically calculated according to Finney (1970). Through this rate, the corresponding concentration test lines (LDP lines) are assessed.

Compound: O=C(NC(=S)Nc1ncn(-c2ccccc2)n1)c1ccccc1 [Compound 1, N-[(1-phenyl-1H-1,2,4-triazol-3-yl)carbamothioyl]benzamide]
- Slope (2nd instar larvae): 1.10 ± 0.36
- Slope (4th instar larvae): 1.123 ± 0.35
